This assay relates to BDF1 mice, intracerebral L1210 leukemia, survival T/C. Description: NCI In Vivo Anticancer Drug Screen. Data for tumor model L1210 Leukemia (intracerebral) in B6D2F1 (BDF1) mice. The settings on record: higher T/C = longer survival. In outline:
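Readout is the T/C ratio: survival of compound-treated animals over that of vehicle-treated controls, in mice bearing transplantable tumour.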

Molecules are shown by their SMILES. The list is a part of this screen's results and no random one: it is rich in T/C values a quarter to a half above the control, in often repeated tests (any T/C) and in doses without a T/C. Other doses and runs of a compound stand elsewhere. T/C: endpoint of the treated group in % of that of the vehicle group. Some entries give survivors of the animals treated and no T/C: the source holds a T/C of zero for them, seemingly a mark for toxic or unscored doses. Some doses without a T/C left all or most animals alive at the check, yet need not have been tolerated: survival well below the control is almost never listed, so the zero probably covers shortened survival too. Survivors were counted at the toxicity check, usually on the fifth day, unless a day is given; later deaths do not show. Schedules are NCI's codes, taken here to give the interval after Q, in days (D) or hours (H), and the number of doses after X. Some schedule codes hold Z or #, which are not explained here. For survival time, the PubChem record calls one and a half times the control and up active, and a quarter to a half above the control has no call in these data; cut-offs in other NCI protocols can differ. Some T/C values carry the count of animals alive at the toxicity check (mostly the fifth day); where none is given, no animal had died by that day. Some entries hold several experiments; the values are given in rising order.

Take `O=NN(CCCl)C(=O)NC1CCCCC1`: the T/C (T/C endpoint: mean survival time, dose: 4.0 mg/kg/injection, schedule: Q01DX009 (ip), vehicle: carboxymethylcellulose (CMC)) is 143 % of control; the T/C (T/C endpoint: mean survival time, dose: 4.0 mg/kg/injection, schedule: Q01DX Z (ip), vehicle: carboxymethylcellulose (CMC)) was 140 % of control; the T/C (T/C endpoint: mean survival time, dose: 8.0 mg/kg/injection, schedule: Q01DX Z (ip), vehicle: carboxymethylcellulose (CMC)) is 143 % of control; the T/C (T/C endpoint: mean survival time, dose: 10.0 mg/kg/injection, schedule: Q01DX001 (ip), vehicle: carboxymethylcellulose (CMC), evaluated on day 30) was 140 % of control; the T/C (T/C endpoint: mean survival time, dose: 10.0 mg/kg/injection, schedule: Q01DX001 (ip), vehicle: carboxymethylcellulose (CMC), evaluated on day 45) is reported as 114, 117, 141 % of control; the T/C (T/C endpoint: mean survival time, dose: 12.5 mg/kg/injection, schedule: Q01DX001 (ip), vehicle: carboxymethylcellulose (CMC)) is 146 % of control [9 of 10 alive]. Moreover, the T/C is 141 % of control (T/C endpoint: mean survival time, dose: 18.0 mg/kg/injection, schedule: Q01DX001 (ip), vehicle: carboxymethylcellulose (CMC)); 129 % of control (T/C endpoint: mean survival time, dose: 18.5 mg/kg/injection, schedule: Q01DX001 (ip), vehicle: carboxymethylcellulose (CMC)); 149 % of control (T/C endpoint: mean survival time, dose: 20.0 mg/kg/injection, schedule: Q01DX001 (ip), vehicle: carboxymethylcellulose (CMC)); 206 and 241 % of control (T/C endpoint: mean survival time, dose: 21.0 mg/kg/injection, schedule: Q01DX001 (ip), vehicle: carboxymethylcellulose (CMC), evaluated on day 45); 126 and 144 % of control (T/C endpoint: mean survival time, dose: 21.0 mg/kg/injection, schedule: Q01DX001 (ip), vehicle: carboxymethylcellulose (CMC), run until all animals had died); 150, 281, 284, 309 % of control (T/C endpoint: mean survival time, dose: 25.0 mg/kg/injection, schedule: Q01DX001 (ip), vehicle: carboxymethylcellulose (CMC)). Further, the T/C is, setting by setting: (T/C endpoint: mean survival time, dose: 31.0 mg/kg/injection, schedule: Q01DX Z (ip), vehicle: carboxymethylcellulose (CMC)) 139 % of control; (T/C endpoint: mean survival time, dose: 32.0 mg/kg/injection, schedule: Q01DX009 (ip), vehicle: carboxymethylcellulose (CMC)) 140 % of control [9 of 10 alive]; (T/C endpoint: mean survival time, dose: 40.0 mg/kg/injection, schedule: Q01DX001 (ip), vehicle: carboxymethylcellulose (CMC), evaluated on day 30) 314 % of control; (T/C endpoint: mean survival time, dose: 40.0 mg/kg/injection, schedule: Q01DX001 (ip), vehicle: carboxymethylcellulose (CMC), evaluated on day 45) 186 and 476 % of control; (T/C endpoint: mean survival time, dose: 40.0 mg/kg/injection, schedule: Q01DX001 (ip), vehicle: carboxymethylcellulose (CMC), run until all animals had died) 379 % of control; (T/C endpoint: mean survival time, dose: 50.0 mg/kg/injection, schedule: Q01DX001 (ip), vehicle: carboxymethylcellulose (CMC), evaluated on day 45) 415, 434 [9 of 10 alive], 497 % of control. Moreover, the T/C (T/C endpoint: mean survival time, dose: 50.0 mg/kg/injection, schedule: Q01DX001 (ip), vehicle: carboxymethylcellulose (CMC), run until all animals had died) is on record as 267, 282, 316, 330, 340 % of control and the T/C (T/C endpoint: mean survival time, dose: 70.0 mg/kg/injection, schedule: Q01DX001 (ip), vehicle: carboxymethylcellulose (CMC)) was 141 % of control [9 of 10 alive]. Also, the survivor count is, setting by setting: (T/C endpoint: mean survival time, dose: 64.0 mg/kg/injection, schedule: Q01DX009 (ip), vehicle: carboxymethylcellulose (CMC)) 10 of 10; (T/C endpoint: mean survival time, dose: 97.0 mg/kg/injection, schedule: Q01DX001 (oral), vehicle: carboxymethylcellulose (CMC)) 10 of 10; (T/C endpoint: mean survival time, dose: 125.0 mg/kg/injection, schedule: Q01DX Z (ip), vehicle: carboxymethylcellulose (CMC)) 4 of 10; (T/C endpoint: mean survival time, dose: 144.0 mg/kg/injection, schedule: Q01DX001 (ip), vehicle: carboxymethylcellulose (CMC)) 10 of 10; (T/C endpoint: mean survival time, dose: 150.0 mg/kg/injection, schedule: Q01DX001 (ip), vehicle: carboxymethylcellulose (CMC)) 10 of 10; (T/C endpoint: mean survival time, dose: 160.0 mg/kg/injection, schedule: Q01DX001 (ip), vehicle: carboxymethylcellulose (CMC)) 7 of 10. Moreover, the survivor count reads like this: (T/C endpoint: mean survival time, dose: 225.0 mg/kg/injection, schedule: Q01DX001 (ip), vehicle: carboxymethylcellulose (CMC)) 9 of 10; (T/C endpoint: mean survival time, dose: 288.0 mg/kg/injection, schedule: Q01DX001 (ip), vehicle: carboxymethylcellulose (CMC)) 4 of 10.

For `CN(N=O)C(=O)NC(N)=O`, the T/C (T/C endpoint: mean survival time, dose: 112.0 mg/kg/injection, schedule: Q01DX001 (ip), vehicle: carboxymethylcellulose (CMC)) was 125 % of control. Also, the survivor count is reported as 4 of 6 (T/C endpoint: mean survival time, dose: 168.0 mg/kg/injection, schedule: Q01DX001 (ip), vehicle: carboxymethylcellulose (CMC)); 0 of 6 (T/C endpoint: mean survival time, dose: 252.0 mg/kg/injection, schedule: Q01DX001 (ip), vehicle: carboxymethylcellulose (CMC)); 0 of 6 (T/C endpoint: mean survival time, dose: 378.0 mg/kg/injection, schedule: Q01DX001 (ip), vehicle: carboxymethylcellulose (CMC)); 0 of 6 (T/C endpoint: mean survival time, dose: 567.0 mg/kg/injection, schedule: Q01DX001 (ip), vehicle: carboxymethylcellulose (CMC)).

`CCN(CC)CCNc1ccc(CO)c2sc3ccccc3c(=O)c12`: the survivor count is given as 10 of 10 (T/C endpoint: mean survival time, dose: 128.0 mg/kg/injection, schedule: Q01DX005 (ip), vehicle: saline) and 4 of 10 (T/C endpoint: mean survival time, dose: 256.0 mg/kg/injection, schedule: Q01DX005 (ip), vehicle: saline).

Take `CC(=O)Nc1ccc2c(Nc3ccc(NS(C)(=O)=O)cc3)c3ccccc3nc2c1`: the survivor count is recorded as 10 of 10 (T/C endpoint: mean survival time, dose: 12.5 mg/kg/injection, schedule: Q01DX009 (ip), vehicle: saline); 9 of 10 (T/C endpoint: mean survival time, dose: 25.0 mg/kg/injection, schedule: Q01DX009 (ip), vehicle: saline); 10 of 10 (T/C endpoint: mean survival time, dose: 25.0 mg/kg/injection, schedule: Q01DX009 (sc), vehicle: saline).

On to `CSc1ncnc2c1ncn2C1OC(CO)C(O)C1O` (configuration not stated), for which the survivor count reads like this: (T/C endpoint: mean survival time, dose: 75.0 mg/kg/injection, schedule: Q01DX Z (ip), vehicle: saline) 5 of 10; (T/C endpoint: mean survival time, dose: 100.0 mg/kg/injection, schedule: Q01DX Z (ip), vehicle: saline) 4 of 10.

For `COc1cc([C@@H]2c3cc4c(cc3[C@@H](OC3OC5COC(C)OC5C(O)C3O)[C@H]3COC(=O)[C@H]23)OCO4)cc(OC)c1O` (some centres not stated), the T/C (T/C endpoint: mean survival time, dose: 8.0 mg/kg/injection, schedule: Q01DX009 (oral), vehicle: Klucel (hydroxypropylcellulose) (HPC)) was 127 % of control.

As to `N=[N+]=CC(=O)OCC(N)C(=O)O` (configuration not stated), the survivor count (T/C endpoint: mean survival time, dose: 98.0 mg/kg/injection, schedule: Q01DX001 (ip), vehicle: saline) is 6 of 10.

For `CS(C)=O`, under “T/C endpoint: median survival time, dose: 1.0 mg/kg/injection, schedule: Q#C X009 (oral), vehicle: water”, the T/C was 128 % of control.

In the case of `O=NN1CCCNC1=O`, the survivor count (T/C endpoint: mean survival time, dose: 300.0 mg/kg/injection, schedule: Q01DX001 (ip), vehicle: carboxymethylcellulose (CMC)) is 0 of 10; the survivor count (T/C endpoint: mean survival time, dose: 375.0 mg/kg/injection, schedule: Q01DX001 (ip), vehicle: carboxymethylcellulose (CMC)) is 1 of 10; the survivor count (T/C endpoint: mean survival time, dose: 600.0 mg/kg/injection, schedule: Q01DX001 (ip), vehicle: carboxymethylcellulose (CMC)) is given as 0 of 10.

Turning to `O=NN(CCF)C(=O)NC1CCS(=O)(=O)CC1`, the T/C was 128 % of control (T/C endpoint: mean survival time, dose: 4.8 mg/kg/injection, schedule: Q01DX001 (oral), vehicle: other) and 126 % of control (T/C endpoint: mean survival time, dose: 6.0 mg/kg/injection, schedule: Q01DX001 (ip), vehicle: other). Also, the survivor count (T/C endpoint: mean survival time, dose: 48.0 mg/kg/injection, schedule: Q01DX001 (ip), vehicle: other) is on record as 5 of 10; the survivor count (T/C endpoint: mean survival time, dose: 60.0 mg/kg/injection, schedule: Q01DX001 (ip), vehicle: other) was 5 of 10; the survivor count (T/C endpoint: mean survival time, dose: 80.0 mg/kg/injection, schedule: Q01DX001 (ip), vehicle: other) is 3 of 10; the survivor count (T/C endpoint: mean survival time, dose: 80.0 mg/kg/injection, schedule: Q01DX001 (oral), vehicle: other) was 2 of 10; the survivor count (T/C endpoint: mean survival time, dose: 120.0 mg/kg/injection, schedule: Q01DX001 (ip), vehicle: other) is given as 2 of 10.

With `O=NN(CCCl)C(=O)NC1CCCCCCCCCCC1`, the T/C was 142 % of control (T/C endpoint: mean survival time, dose: 555.0 mg/kg/injection, schedule: Q01DX001 (ip), vehicle: other); 136 and 146 % of control (T/C endpoint: mean survival time, dose: 838.0 mg/kg/injection, schedule: Q01DX001 (ip), vehicle: other); 147 % of control [9 of 10 alive] (T/C endpoint: mean survival time, dose: 1192.0 mg/kg/injection, schedule: Q01DX001 (ip), vehicle: other); 129 % of control (T/C endpoint: mean survival time, dose: 1875.0 mg/kg/injection, schedule: Q01DX001 (ip), vehicle: other).

The values are drawn from PubChem BioAssay AID252 (DTP/NCI, 2004).
